Laboratory results as given in PMC12370185.
The other results are listed elsewhere or left out. For some of these results: At the low end of the ranking the order means little.

Columns and labels:
Details in all cases: 10 mM Tris-Cl pH 7.5, 50 mM NaCl, 1 mM DTT, 0.25 mg/ml BSA, 2 mM MgCl2, 0.025% Nonidet P-40, 5% glycerol; 28 nM nucleosome library; 10 min on ice then 30 min …; high values mean tight binding; double strand, one strand shown
KLF4 + histone octamer = test: EMSA with sequencing
[1] = system: c-MYC + MAX + histone octamer; test: EMSA with sequencing
OCT4 + histone octamer = test: Pioneer-seq (competitive nucleosome EMSA with sequencing)
SOX2 + histone octamer = test: as above

“GATGGACCCTATACGCGGCCCTTCCTGCAGACCTGGCTGGGCCTGGGCTTCCACAGTGTGAAGACACTGTGCAGGCCCAGGCAGGCCCAGCCTCTGCCCCACCCATCAGTGGAGTCCAGATGGCAGGCTACAGTTGGGAAGTCTCAGCCTGGGCCCCTCAGCCACCCTTGGTCTCATGCCCCGCCATGGTCACCCTCAGGAACCCACCCTTGCCAGTCGGATAGTGTTCC” gave a binding signal (log2 relative supershift) (KLF4 + histone octamer) of 2.48, a binding signal (log2 relative supershift) [1] of 0.394 and a binding signal (log2 relative supershift) (OCT4 + histone octamer) of -1.15. The binding signal (log2 relative supershift) (SOX2 + histone octamer) was -0.744.

Sequence “GATGGACCCTATACGCGGCCCGCCCCAGCAGGCCCATTGCATCAGCTGCAGGCCGGGGGTTGGGGGGTGTCCCAGCCCTCAGCTTGCCCACTCCCTCCTGCCCAGCCCTGCCCTGGCTTTCCTGCTCTGCTCCCACCCACAGCTCCCTGACATTGTCACCTACCTCCTGAGCTGTCACCACAGGGCGCACGGGACTCCGCTGCCCCAGGTTGCCAGTCGGATAGTGTTCC” has a binding signal (log2 relative supershift) (KLF4 + histone octamer) of 1.51, a binding signal (log2 relative supershift) [1] of 1.05 and a binding signal (log2 relative supershift) (OCT4 + histone octamer) of -0.819. For the same sequence, the binding signal (log2 relative supershift) (SOX2 + histone octamer) was -1.78.

With “GATGGACCCTATACGCGGCAAACCCCGCCACTTCCCCTTCCTCGGTAAGAGGAACTTGGCGTTGCCCTGACAGGAAAGTCTTGGTGGGGCTTCTCGGAAGCCGCCACCGCTGCACTGCTGAGCAAAACCACAGGTCAGGGGCCAGGCCGGGGGCCAGGCTAGTGAGGACTGGCCATTGATAAAGTCACAGGCTCCATCTAAGCCCATCGGTGCCAGTCGGATAGTGTTCC” the binding signal (log2 relative supershift) (KLF4 + histone octamer) was 1.78, the binding signal (log2 relative supershift) [1] was 0.0294 and the binding signal (log2 relative supershift) (OCT4 + histone octamer) was -0.569. For the same sequence, the binding signal (log2 relative supershift) (SOX2 + histone octamer) was -0.542.

In the case of “GATGGACCCTATACGCGGCGGAGAGGAAGCCATCAGCGTAGCCATGGTGAGCTTTATCTTTCCCACCCTCGGAAGCACAGACATGGCCCGGCACGTGGCTCACGCCTGTAATCCCAACAGTTTGGGAAGCTGAGGCACGAGGATCGCTTGAGTTCACGAGTCAAGAGTTGGAGACCAGCCTGGGCAACATGGCGACACCTTGTCTGTACTTGCCAGTCGGATAGTGTTCC”, the binding signal (log2 relative supershift) (KLF4 + histone octamer) is reported as 2.18, the binding signal (log2 relative supershift) [1] is reported as 0.56 and the binding signal (log2 relative supershift) (OCT4 + histone octamer) is reported as -0.367. It also gave a binding signal (log2 relative supershift) (SOX2 + histone octamer) of -0.152.

With “GATGGACCCTATACGCGGCCCCACGGACACACATACATCAACACCCCCAAAACACACCCACATGTCACCAACTCTCAGGACACACGTAGATCAGGCACACACAGACACATGCCATCAGACCTCAACACACCACCAGACACCAACCCACCCTCCTCACGCAACCCTCAAACATCATCACCAACTGTCAGCAACACACACACACACACACCCTGCCAGTCGGATAGTGTTCC” the binding signal (log2 relative supershift) (KLF4 + histone octamer) was 2.76, the binding signal (log2 relative supershift) [1] was 0.676 and the binding signal (log2 relative supershift) (OCT4 + histone octamer) was -0.759. For the same sequence, the binding signal (log2 relative supershift) (SOX2 + histone octamer) was -0.265.

For “GATGGACCCTATACGCGGCAGCTGGGAGAGGCTAGTAGGGTGTGTGGGCAGGGAGGGGTGGAGGAGTCCTGGGAGGAGAGGAAGGGAGGCACAGGGTAGGAGTGTGCAGAGCGGGGAGTGGATGGCAAACACACAATCCACCCAACCACATGTGCTCTTTACCCCCCAGCTGATCCAGAAGTACAAGGTGGTCCTGGCCCCGGAGACGGGTGCCAGTCGGATAGTGTTCC”, the binding signal (log2 relative supershift) (KLF4 + histone octamer) was 1.67, the binding signal (log2 relative supershift) [1] was 0.424 and the binding signal (log2 relative supershift) (OCT4 + histone octamer) was -0.036. The binding signal (log2 relative supershift) (SOX2 + histone octamer) was -0.851.

With “GATGGACCCTATACGCGGCGGGAATACGTGCATGAGTGGGGTGTGTGTGCATGTGTGTGAATGTGTGTGTGCATGTGCAAAGCAACTCTGTGTATGAGGCAAACCTGAGTGTGTGCGGTGCGTGTGAATGCCTGCATGTGCGCGTGCGTGTGTGAAGAGTCTGCGTGGGGGAACACGTGTGTAAAGGCATGGATGTGCACGTGTGTGTGCTGCCAGTCGGATAGTGTTCC” the binding signal (log2 relative supershift) (KLF4 + histone octamer) was 2.05, the binding signal (log2 relative supershift) [1] was 1.21 and the binding signal (log2 relative supershift) (OCT4 + histone octamer) was -0.796. The binding signal (log2 relative supershift) (SOX2 + histone octamer) was -0.118.

“GATGGACCCTATACGCGGCTGCCACCCTTGGCTGTACCAAGCTCTGGGAAGGAAGGAGGGGACGTGTCCCAGGTACCCCCTCCACCCACATTGGTGAGGCTGACTCAGGCCCCAGCCACGTGTCCCAACCTGCCCTGCGCGTCCCAGAGGGGAAGGAAGATATTCCAATGCTCCCAGGAGGCTGAGGTTGGGCAGGGAGCAGGAGAGAGGTGCCAGTCGGATAGTGTTCC” gave a binding signal (log2 relative supershift) (KLF4 + histone octamer) of 2.4, a binding signal (log2 relative supershift) [1] of 0.558 and a binding signal (log2 relative supershift) (OCT4 + histone octamer) of -0.0405. The binding signal (log2 relative supershift) (SOX2 + histone octamer) was -0.133.

“GATGGACCCTATACGCGGCCCGGGCAGAACTACTGAGCGAGGAGCCTATCAGTCCTGGTTCCCAAGCTCCCTGCCCCAGCCTGCCCCTGGCCTCCCAGTGCCTTGGCCTGCCTCACATGCCTGGGCTTGGCCCCAGGTTATCTTCAGAGCCATCCCATCCTGCCTCCCTGACTGACCATGCCACTTCCCGCTCAAAACCTGTCCATGGCTTGCCAGTCGGATAGTGTTCC” gave a binding signal (log2 relative supershift) (KLF4 + histone octamer) of 0.584, a binding signal (log2 relative supershift) [1] of 0.416 and a binding signal (log2 relative supershift) (OCT4 + histone octamer) of -0.809. For the same sequence, the binding signal (log2 relative supershift) (SOX2 + histone octamer) was -0.804.

With “GATGGACCCTATACGCGGCGTAGGCAAAGAGGAAGCCCAAGATAGGGGAAGGCCAGGGTGTTGGTTCCTCAGTTTGTTGAAATCAGAGTCATGAAGCAAGACAAGCCAGGGCTTGCTCAGCATTTCTCCTTCCTGGCATGGGTTCACCTCAGCCCCAATTCAGTGGCAGCTCTGTTGGTTCAGAGGGGTGAGGTATCCAAGAGGAGGAAGTGCCAGTCGGATAGTGTTCC” the binding signal (log2 relative supershift) (KLF4 + histone octamer) was 2.41, the binding signal (log2 relative supershift) [1] was 0.015 and the binding signal (log2 relative supershift) (OCT4 + histone octamer) was -0.528. For the same sequence, the binding signal (log2 relative supershift) (SOX2 + histone octamer) was -0.0783.
